# Some entries share one result that the patent states for a list of compounds.
# Test system: Plasmodium falciparum
# Assay: In vitro antimalarial activity against Plasmodium falciparum (strain not given)
# Assay type: cell-based
# Conditions: judged from the IC50 values of Table 1
# Description: The in vitro assays were conducted by using a modification of the semiautomated microdilution technique of Desjardins et al.^11 and Chulay et al.^12 Two strains of Plasmodium falciparum clones, from CDC Indochina III (W-2), CDC Sierra Leone I (D-6). […] They were derived by direct visualization and micromanipulation from patient isolates.^13 Test compounds were initially dissolved in DMSO and diluted 400-fold in RPMI 1640 culture medium supplemented with 25 mM Hepes, 32 mM HaHCO3, and 10% Albumax I® (GIBCO BRL, Grand Island, N.Y.). These solutions were subsequently serially diluted 2-fold with a Biomek 1000® (Beckman, Fullerton, Calif.) over 11 different concentrations. The parasites were exposed to serial dilutions of each compound for 48 h and incubated at 37° C. with 5% O2, 5% CO2, and 90% N2 prior to the addition of [^3H]hypoxanthine. After a further incubation of 18 h, parasite DNA was harvested from each microtiter well using Packard Filtermate 196 Harvester® (Meriden, Conn.) onto glass filters. Uptake of [^3H]hypoxanthine was measured with a Packard Topcount scintillation counter. […] This procedure was repeated with the test compounds initially dissolved in DMSO and diluted 400-fold in RPMI 1640 culture medium supplemented with 25 mM Hepes, 32 mM HaHCO3, and with blood serum replacing the 10% Albumax I® (see Table 1, figures without parentheses). The values without parentheses indicate culture in blood serum which more closely resemble conditions in a living animal.
# Four strains of Plasmodium falciparum clones, from CDC Indochina III (W-2), CDC Sierra Leone I (D-6), Thai WR75-TM9, and Thai TM90C2B were utilized in susceptibility testing and the IC50 results appear in Table 1.
row,SMILES,effectiveness in treating/reducing malaria parasites as shown in Table 1
1,O=c1c2ccccc2nc2n1-c1ccccc1C21OCCO1 [Example 80],effective
2,CN1CCN(c2ccc3c(c2)-n2c(nc4ccccc4c2=O)C3=O)CC1 [Example 16],effective
3,CCOC(=O)c1ccc2c(c1)C(=O)c1nc3ccc(I)cc3c(=O)n1-2 [Example 26],effective
4,O=C1c2cc(Cl)ccc2-n2c1nc1cc(F)ccc1c2=O [Example 45],effective
5,O=C1c2ccccc2-n2c1nc1ccncc1c2=O [Example 52],effective
6,CN1CCN(c2cc3c(cc2F)C(=O)c2nc4ccccc4c(=O)n2-3)CC1 [Example 18],effective
7,N#CC(C#N)=c1c2cc(F)ccc2n2c(=O)c3ccccc3nc12 [Example 57],effective
8,O=C1c2cc(Br)ccc2-n2c1nc1cnccc1c2=O [Example 59],effective
9,CC1CN(c2cc3nc4n(c(=O)c3cc2F)-c2ccc(I)cc2C4=O)CCN1C(=O)OC(C)(C)C (centres unmarked) [Example 34],effective
10,CCCCCCCCc1ccc2c(c1)C(=O)c1nc3ccncc3c(=O)n1-2 [Example 41],effective
11,Nc1ccc2nc3n(c(=O)c2c1)-c1ccc(F)cc1C3=O [Example 8],effective
12,O=C1c2cc(C3OCCCO3)ccc2-n2c1nc1ccncc1c2=O [Example 77],effective
13,COc1cccc2c(=O)n3c(nc12)/c(=C/c1ccccc1)c1cc(F)ccc13 [Example 75],effective
14,CCOC(=O)c1nc2ccccc2c(=O)n1-c1ccccc1 [Example 53],effective
15,CCOC(=O)C(O)(C(=O)OCC)C1c2cc(F)ccc2-n2c1nc1c(OC)cccc1c2=O (centres unmarked) [Example 76],effective
16,O=c1c2ccccc2nc2sc3ccccc3n12 [Example 2],effective
17,Cc1ccc2nc3n(c(=O)c2c1)-c1ccccc1C3=O [Example 5],effective
18,Cc1cc(C)c2nc3n(c(=O)c2c1)-c1ccc(F)cc1C3=O [Example 10],effective
19,CN1CCN(c2ccc3c(=O)n4c(nc3c2)C(=O)c2cc(F)ccc2-4)CC1 [Example 15],effective
20,O=C1c2cc(Br)ccc2-n2c1nc1ccncc1c2=O [Example 39],effective

row,SMILES,effectiveness in treating/reducing malaria parasites as shown in Table 1
1,Cc1ncc2c(=O)n3c(nc2n1)C(=O)c1cc(I)ccc1-3 [Example 54],effective
2,CN(CCO)c1ccc2c(=O)n3c(nc2c1)C(=O)c1cc(Cl)ccc1-3 [Example 46],effective
3,O=C1c2cc(F)ccc2N2C(=O)c3ccccc3NC12 (centres unmarked) [Example 4],effective
4,COC(c1ccc2c(c1)C(=O)c1nc3ccncc3c(=O)n1-2)C(C)C (centres unmarked) [Example 73],effective
5,NC(=O)N/N=C1/c2ccccc2-n2c1nc1ccccc1c2=O [Example 37],effective
6,CN1CCN(c2ccc3c(=O)n4c(nc3c2)C(=O)c2cc(Cl)ccc2-4)CC1 [Example 58],effective
7,Cc1ccc2nc3n(c(=O)c2c1)-c1ccc(F)cc1C3=O [Example 11],effective
8,O=C1c2cc(/C=N/N3CCCCC3)ccc2-n2c1nc1ccncc1c2=O [Example 89],effective
9,CCN(CCN(C)C)c1ccc2c(=O)n3c(nc2c1)C(=O)c1cc(Cl)ccc1-3 [Example 49],effective
10,CN(CCO)c1ccc2c(=O)n3c(nc2c1)C(=O)c1cc(OC(F)(F)F)ccc1-3 [Example 79],effective
11,CN1CCN(/N=C\c2ccc3c(c2)C(=O)c2nc4ccncc4c(=O)n2-3)CC1 [Example 66],effective
12,Cc1ccc2c(c1)C(=O)c1nc3ccncc3c(=O)n1-2 [Example 82],effective
13,CC(C)(C)OC(=O)N/N=C1/c2ccccc2-n2c1nc1ccccc1c2=O [Example 36],effective
14,O=C1c2cc(I)ccc2-n2c1nc1c(Br)cc(Br)cc1c2=O [Example 29],effective
15,CCc1ccc2c(c1)C(=O)c1nc3ccncc3c(=O)n1-2 [Example 83],effective
16,Cc1cccc2c(=O)n3c(nc12)C(=O)c1cc(F)ccc1-3 [Example 14],effective
17,CC1(C)COC(c2ccc3c(c2)C(=O)c2nc4ccncc4c(=O)n2-3)OC1 [Example 81],effective
18,COCCOC(c1ccc2c(c1)C(=O)c1nc3ccncc3c(=O)n1-2)C(C)C (centres unmarked) [Example 85],effective
19,O=C1c2ccccc2-n2c1nc1c(Br)cc(Br)c(F)c1c2=O [Example 33],effective
20,CN(CCOC(=O)CCC(=O)O)c1ccc2c(=O)n3c(nc2c1)C(=O)c1cc(Cl)ccc1-3 [Example 61],effective

row,SMILES,effectiveness in treating/reducing malaria parasites as shown in Table 1
1,Cc1ncc2c(=O)n3c(nc2n1)C(=O)c1cc(Cl)ccc1-3 [Example 55],effective
2,C=CCO/N=C/c1ccc2c(c1)C(=O)c1nc3ccncc3c(=O)n1-2 [Example 90],effective
3,CCOC(=O)C(O)(C(=O)OCC)C1c2ccccc2-n2c1nc1ccccc1c2=O (centres unmarked) [Example 65],effective
4,CC1CN(c2cc3nc4n(c(=O)c3cc2F)-c2ccc(I)cc2C4=O)CCN1 (centres unmarked) [Example 35],effective
5,O=C1c2cc(C3CCCCC3)ccc2-n2c1nc1ccncc1c2=O [Example 74],effective
6,Cc1ncc2c(=O)n3c(nc2n1)C(=O)c1ccccc1-3 [Example 56],effective
7,COc1cccc2c(=O)n3c(nc12)C(=O)c1cc(I)ccc1-3 [Example 27],effective
8,CCOC(=O)c1ccc2c(c1)C(=O)c1nc3ncccc3c(=O)n1-2 [Example 24],effective
9,O=C1c2cc(OC(F)(F)F)ccc2-n2c1nc1cc(SCCO)ccc1c2=O [Example 87],effective
10,COC(OC)c1ccc2c(c1)C(=O)c1nc3ccncc3c(=O)n1-2 [Example 70],effective
11,O=C1c2cc(F)ccc2-n2c1nc1ccccc1c2=O [Example 91],effective
12,CN(CC(=O)O)c1ccc2c(=O)n3c(nc2c1)C(=O)c1cc(Cl)ccc1-3 [Example 60],effective
13,COCc1ccc2c(c1)C(=O)c1nc3ccncc3c(=O)n1-2 [Example 62],effective
14,CN1CCN(c2cc3c(cc2F)C(=O)c2nc4cc(F)ccc4c(=O)n2-3)CC1 [Example 20],effective
15,Cc1cccc2c(=O)n3c(nc12)C(=O)c1ccccc1-3 [Example 6],effective
16,O=C1c2cc(C(O)(C(F)(F)F)C(F)(F)F)ccc2-n2c1nc1ccncc1c2=O [Example 84],effective
17,O=C1c2cc(Cl)ccc2-n2c1nc1ncncc1c2=O [Example 50],effective
18,COc1cccc2c(=O)n3c(nc12)C(=O)c1ccccc1-3 [Example 28],effective
19,O=C1c2cc(I)ccc2-n2c1nc1ncccc1c2=O [Example 23],effective

# Same assay, conditions: judged from the IC50 values of Table 1; listed as compound 21
row,SMILES,effectiveness in treating/reducing malaria parasites as shown in Table 1
1,O=C1c2cc(Cl)ccc2-n2c1nc1ncccc1c2=O [Example 21],effective

# Same assay, conditions: judged from the IC50 values of Table 1; listed as compound 63
row,SMILES,effectiveness in treating/reducing malaria parasites as shown in Table 1
1,O=C1c2cc(OC(F)(F)F)ccc2-n2c1nc1ccncc1c2=O [Example 63],effective

# Same assay, conditions: judged from the IC50 values of Table 1; listed as compound 78
row,SMILES,effectiveness in treating/reducing malaria parasites as shown in Table 1
1,O=C1c2cc(OC(F)(F)F)ccc2-n2c1nc1cc(F)ccc1c2=O [Example 78],effective

# From patent US8012987B2, “Indolo[2,1-b] quinazole-6,12-dione antimalarial compounds and methods of treating malaria therewith” (The United States of America as represented by the …, priority 1998, dated 2011)
